No constants are given. Whether binding was seen depends on the method and setting. Binding seen in cells or lysates may run through a third protein. Sequences can lack the tags named with a protein.
Columns and labels:
[1] = target: T1, CiLV-C p29 with a C-terminal HA epitope, transiently expressed (pMOG-p29:HA) (citrus leprosis virus C) (UniProt Q1KZ58); assay: co-IP; HA- and 3xMyc-tagged proteins transiently co-expressed in N. benthamiana leaves, 3 dpi; extract in 25 mM Tris HCl pH 7.4, 150 mM NaCl, 1 mM EDTA, 1% NP-40, 5% glycerol; Pierce anti-HA magnetic beads, 90 min at room temperature; blots with anti-HA and anti-c-Myc
T1 sequence: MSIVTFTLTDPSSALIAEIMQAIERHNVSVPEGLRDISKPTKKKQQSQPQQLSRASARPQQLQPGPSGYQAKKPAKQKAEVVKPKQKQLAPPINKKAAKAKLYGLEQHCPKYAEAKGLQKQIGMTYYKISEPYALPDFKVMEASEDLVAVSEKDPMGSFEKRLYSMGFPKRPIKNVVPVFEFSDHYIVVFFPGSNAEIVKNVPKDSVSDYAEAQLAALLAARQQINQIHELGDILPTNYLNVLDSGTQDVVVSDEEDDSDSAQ

[2] = target: T2, CiLV-C p29 with an N-terminal HA epitope, transiently expressed (citrus leprosis virus C) (UniProt Q1KZ58); assay: as above
T2 sequence: T1 sequence

Row | Substance | binding [1] | binding [2]
1 | Poly(A)-binding protein with an N-terminal 3xMyc tag | no binding | no binding
2 | eIF4E with an N-terminal 3xMyc tag | no binding | no binding
3 | eIF4E with a C-terminal 3xMyc tag | no binding | no binding
4 | Poly(A)-binding protein with a C-terminal 3xMyc tag | no binding | no binding
